{"source": "paper doi:10.1101/2019.12.30.890665", "molecules": {"B1": {"name": "CDC5 (protein, UniProt P92948 1-844)", "chain": "MRIMIKGGVWKNTEDEILKAAVMKYGKNQWARISSLLVRKSAKQCKARWYEWLDPSIKKTEWTREEDEKLLHLAKLLPTQWRTIAPIVGRTPSQCLERYEKLLDAACTKDENYDAADDPRKLRPGEIDPNPEAKPARPDPVDMDEDEKEMLSEARARLANTRGKKAKRKAREKQLEEARRLASLQKRRELKAAGIDGRHRKRKRKGIDYNAEIPFEKRAPAGFYDTADEDRPADQVKFPTTIEELEGKRRADVEAHLRKQDVARNKIAQRQDAPAAILQANKLNDPEVVRKRSKLMLPPPQISDHELEEIAKMGYASDLLAENEELTEGSAATRALLANYSQTPRQGMTPMRTPQRTPAGKGDAIMMEAENLARLRDSQTPLLGGENPELHPSDFTGVTPRKKEIQTPNPMLTPSMTPGGAGLTPRIGLTPSRDGSSFSMTPKGTPFRDELHINEDMDMHESAKLERQRREEARRSLRSGLTGLPQPKNEYQIVAQPPPEESEEPEEKIEEDMSDRIAREKAEEEARQQALLKKRSKVLQRDLPRPPAASLAVIRNSLLSADGDKSSVVPPTPIEVADKMVREELLQLLEHDNAKYPLDDKAEKKKGAKNRTNRSASQVLAIDDFDENELQEADKMIKEEGKFLCVSMGHENKTLDDFVEAHNTCVNDLMYFPTRSAYELSSVAGNADKVAAFQEEMENVRKKMEEDEKKAEHMKAKYKTYTKGHERRAETVWTQIEATLKQAEIGGTEVECFKALKRQEEMAASFRKKNLQEEVIKQKETESKLQTRYGNMLAMVEKAEEIMVGFRAQALKKQEDVEDSHKLKEAKLATGEEEDIAIAMEASA"}}, "target": "T1, DRB1 tagged with HA epitope (pDRB1:DRB1:HA) (Arabidopsis thaliana) (UniProt O04492)", "T1 sequence": "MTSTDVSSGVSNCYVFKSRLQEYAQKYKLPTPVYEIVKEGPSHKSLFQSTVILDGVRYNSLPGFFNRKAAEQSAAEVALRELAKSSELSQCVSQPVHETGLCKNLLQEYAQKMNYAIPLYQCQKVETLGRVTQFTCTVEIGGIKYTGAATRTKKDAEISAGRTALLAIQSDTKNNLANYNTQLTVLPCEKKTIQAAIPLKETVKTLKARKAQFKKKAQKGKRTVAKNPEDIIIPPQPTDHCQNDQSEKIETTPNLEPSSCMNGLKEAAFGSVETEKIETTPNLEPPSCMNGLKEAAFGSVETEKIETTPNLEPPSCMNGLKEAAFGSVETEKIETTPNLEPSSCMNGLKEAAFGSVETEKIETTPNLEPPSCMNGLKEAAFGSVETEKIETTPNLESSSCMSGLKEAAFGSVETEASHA", "test": "affinity purification with mass spectrometry", "note": "No constants are given. Whether binding was seen depends on the method and setting. Binding seen in cells or lysates may run through a third protein. Here binding means that the protein was enriched with, or labelled near, the bait; the list need not be complete. Where a sequence is shown, tags or fusion partners need not be part of it.", "data": [{"molecule": "KETCH1 (from UniProt F4K2M5)", "values": [{"measurement": "binding", "result": "binds"}]}, {"molecule": "B1", "values": [{"measurement": "binding", "result": "binds"}]}]}
